These are yes or no findings as the source states them, for the method shown. For some assays here: In cells and extracts the contact can be indirect. Some entries that bind do so weakly or less than the wild type.
Columns and labels:
[1] = target: Clover-ADIPOQ (wild-type human adiponectin tagged with Clover) (human) (UniProt Q15848); experiment: FRET or BRET; acceptor bleaching of mRuby2 in living stably expressing HEK293T cells, confocal microscopy, 37 °C; Clover donor, mRuby2 acceptor; cells without or with MG132
[2] = target: circulating adiponectin in serum of noncarriers (human (endogenous in serum)) (UniProt Q15848); experiment: SEC; serum (50 µL) on Superdex 200 10/300 GL in 25 mM HEPES, 150 mM NaCl, 1 mM CaCl2, pH 7.4; fractions probed for adiponectin by Western blot

The chains behind the UniProt entries cited, without tags or fusion partners. Residues count along the entry.
UniProt Q15848, residues 19-244: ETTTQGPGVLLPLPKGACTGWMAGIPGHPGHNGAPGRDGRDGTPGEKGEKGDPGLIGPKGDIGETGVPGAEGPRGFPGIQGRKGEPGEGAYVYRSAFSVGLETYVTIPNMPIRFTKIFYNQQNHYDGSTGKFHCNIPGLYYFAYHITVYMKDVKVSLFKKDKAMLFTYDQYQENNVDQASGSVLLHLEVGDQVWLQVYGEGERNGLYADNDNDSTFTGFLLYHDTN

“Clover-ADIPOQ (wild-type human adiponectin tagged with Clover) (from UniProt Q15848 19-244)” was tested, and the binding [1] was “binds”.
With “circulating adiponectin in serum of noncarriers (from UniProt Q15848 19-244)” the binding [2] was “binds”.

Source: publication PMC9307825
